The target in test [1] is active TGF-β dimer (mouse (endogenous in mouse skeletal muscle)). Put plainly: affinity purification with mass spectrometry; co-IP with anti-TGF-β antibody (1D11) from WT and Col6a2–/– mouse muscle lysates; quantitative DIA mass spectrometry; n = 4 per genotype.
The target of test [2] is collagen VI (collagen type VI) (mouse (endogenous in mouse skeletal muscle)). In words: affinity purification with mass spectrometry; co-IP with anti-collagen VI antibody (Ab6588, raised against COL6A1) from WT mouse muscle lysates, Col6a2–/– muscle as negative control; quantitative DIA mass spectrometry; n = 5 per genotype.

Results are given in words; binding and its absence hold for the method and conditions named. Binding seen in cells or lysates may run through a third protein. Here binding means that the protein was enriched with, or labelled near, the bait; the list need not be complete.

B1: biglycan (protein, UniProt P28653 38-369)
chain: DEEASGSDTTSGVPDLDSVTPTFSAMCPFGCHCHLRVVQCSDLGLKTVPKEISPDTTLLDLQNNDISELRKDDFKGLQHLYALVLVNNKISKIHEKAFSPLRKLQKLYISKNHLVEIPPNLPSSLVELRIHDNRIRKVPKGVFSGLRNMNCIEMGGNPLENSGFEPGAFDGLKLNYLRISEAKLTGIPKDLPETLNELHLDHNKIQAIELEDLLRYSKLYRLGLGHNQIRMIENGSLSFLPTLRELHLDNNKLSRVPAGLPDLKLLQVVYLHSNNITKVGINDFCPMGFGVKRAYYNGISLFNNPVPYWEVQPATFRCVTDRLAIQFGNYKK
For the molecule B1, the binding result in test [1] is recorded as “binds”.

B2: Mfap2 (Magp-1) (protein, UniProt P55002 17-183)
chain: QGQYDLDPLPPFPDHVQYNHYGDQIDNADYYDYQEVSPRTPEEQFQSQQQVQQEVIPAPTPEPAAAGDLETEPTEPGPLDCREEQYPCTRLYSIHKPCKQCLNEVCFYSLRRVYVVNKEICVRTVCAHEELLRADLCRDKFSKCGVMAVSGLCQSVAASCARSCGGC
For B2, the binding result in test [2] was “binds”.

B3: fibromodulin (protein, UniProt P50608 19-376)
chain: QYDEDSHWWIQYLRNQQSTYYDPYDPYPYEPSEPYPYGVEEGPAYAYGAPPPPEPRDCPQECDCPPNFPTAMYCDNRNLKYLPFVPSRMKYVYFQNNQISAIQEGVFDNATGLLWVALHGNQITSDKVGRKVFSKLRHLERLYLDHNNLTRMPGPLPRSLRELHLDHNQISRVPNNALEGLENLTALYLHHNEIQEVGSSMRGLRSLILLDLSYNHLRRVPDGLPSALEQLYLEHNNVYTVPDSYFRGSPKLLYVRLSHNSLTNNGLATNTFNSSSLLELDLSYNQLQKIPPVNTNLENLYLQGNRINEFSISSFCTVVDVMNFSKLQVLRLDGNEIKRSAMPVDAPLCLRLANLIEI
As for B3, the binding entry in test [2] is reported as “binds”.

B4: Mfap5 (protein, UniProt Q9QZJ6 29-164)
chain: QRGDDVPETFTDDPNLVNDPSTDDTALADITPSTDDLAGDKNATAECRDEKFACTRLYSVHRPVRQCVHQSCFTSLRRMYIINNEICSRLVCKEHEAMKDELCRQMAGLPPRRLRRSNYFRLPPCENMNLQRPDGL
As for B4, the binding entry in test [2] was “binds”.

B5: Tgfbi (protein, UniProt P82198 24-683)
chain: GPAKSPYQLVLQHSRLRGRQHGPNVCAVQKVIGTNKKYFTNCKQWYQRKICGKSTVISYECCPGYEKVPGEKGCPAALPLSNLYETMGVVGSTTTQLYTDRTEKLRPEMEGPGSFTIFAPSNEAWSSLPAEVLDSLVSNVNIELLNALRYHMVDRRVLTDELKHGMTLTSMYQNSNIQIHHYPNGIVTVNCARLLKADHHATNGVVHLIDKVISTITNNIQQIIEIEDTFETLRAAVAASGLNTVLEGDGQFTLLAPTNEAFEKIPAETLNRILGDPEALRDLLNNHILKSAMCAEAIVAGMSMETLGGTTLEVGCSGDKLTINGKAVISNKDILATNGVIHFIDELLIPDSAKTLLELAGESDVSTAIDILKQAGLDTHLSGKEQLTFLAPLNSVFKDGVPRIDAQMKTLLLNHMVKEQLASKYLYSGQTLDTLGGKKLRVFVYRNSLCIENSCIAAHDKRGRFGTLFTMDRMLTPPMGTVMDVLKGDNRFSMLVAAIQSAGLMEILNREGVYTVFAPTNEAFQAMPPEELNKLLANAKELTNILKYHIGDEILVSGGIGALVRLKSLQGDKLEVSSKNNVVSVNKEPVAETDIMATNGVVYAINTVLQPPANRPQERGDELADSALEIFKQASAYSRAAQRSVRLAPVYQRLLERMKH
Regarding B5, the binding result in test [2] is listed as “binds”.

These data come from publication PMC12043086.
